Literature values, collected in patent publication US11376224B2, “System for delivery of FK506 for enhancing nerve regeneration” (THE HOSPITAL FOR SICK CHILDREN, priority 2016, dated 2022).
At least one structure is not confirmed: it was looked up by name or label, or the drawing left a doubt.

Test system: nerve regeneration
Conditions: systemically administered, rat model; cited from earlier work

## C=CC[C@@H]1/C=C(\C)C[C@H](C)C[C@H](OC)[C@H]2O[C@@](O)(C(=O)C(=O)N3CCCC[C@H]3C(=O)O[C@H](/C(C)=C/[C@@H]3CC[C@@H](O)[C@H](OC)C3)[C@H](C)[C@@H](O)CC1=O)[C@H](C)C[C@@H]2OC [FK506]
  nerve regeneration: significantly enhance
